These are yes or no findings as the source states them, for the method shown.
Target: soluble human myoferlin (residues 1-1997) (human) (UniProt Q9NZM1)
Assay: SEC; Superose 6 Increase 10/300 GL; 25 mM HEPES-KOH pH 7.5, 150-200 mM KCl, 1.25-2.5% glycerol, 1 mM DTT (or 0.5 mM TCEP), 0.5 mM CaCl2; both purified

The chains behind the UniProt entries cited, without tags or fusion partners. Where a name states a change or a piece, a line headed by the entry shows the natural chain unless it says otherwise. Residues count along the entry.
UniProt Q9NZM1, residues 1-1997: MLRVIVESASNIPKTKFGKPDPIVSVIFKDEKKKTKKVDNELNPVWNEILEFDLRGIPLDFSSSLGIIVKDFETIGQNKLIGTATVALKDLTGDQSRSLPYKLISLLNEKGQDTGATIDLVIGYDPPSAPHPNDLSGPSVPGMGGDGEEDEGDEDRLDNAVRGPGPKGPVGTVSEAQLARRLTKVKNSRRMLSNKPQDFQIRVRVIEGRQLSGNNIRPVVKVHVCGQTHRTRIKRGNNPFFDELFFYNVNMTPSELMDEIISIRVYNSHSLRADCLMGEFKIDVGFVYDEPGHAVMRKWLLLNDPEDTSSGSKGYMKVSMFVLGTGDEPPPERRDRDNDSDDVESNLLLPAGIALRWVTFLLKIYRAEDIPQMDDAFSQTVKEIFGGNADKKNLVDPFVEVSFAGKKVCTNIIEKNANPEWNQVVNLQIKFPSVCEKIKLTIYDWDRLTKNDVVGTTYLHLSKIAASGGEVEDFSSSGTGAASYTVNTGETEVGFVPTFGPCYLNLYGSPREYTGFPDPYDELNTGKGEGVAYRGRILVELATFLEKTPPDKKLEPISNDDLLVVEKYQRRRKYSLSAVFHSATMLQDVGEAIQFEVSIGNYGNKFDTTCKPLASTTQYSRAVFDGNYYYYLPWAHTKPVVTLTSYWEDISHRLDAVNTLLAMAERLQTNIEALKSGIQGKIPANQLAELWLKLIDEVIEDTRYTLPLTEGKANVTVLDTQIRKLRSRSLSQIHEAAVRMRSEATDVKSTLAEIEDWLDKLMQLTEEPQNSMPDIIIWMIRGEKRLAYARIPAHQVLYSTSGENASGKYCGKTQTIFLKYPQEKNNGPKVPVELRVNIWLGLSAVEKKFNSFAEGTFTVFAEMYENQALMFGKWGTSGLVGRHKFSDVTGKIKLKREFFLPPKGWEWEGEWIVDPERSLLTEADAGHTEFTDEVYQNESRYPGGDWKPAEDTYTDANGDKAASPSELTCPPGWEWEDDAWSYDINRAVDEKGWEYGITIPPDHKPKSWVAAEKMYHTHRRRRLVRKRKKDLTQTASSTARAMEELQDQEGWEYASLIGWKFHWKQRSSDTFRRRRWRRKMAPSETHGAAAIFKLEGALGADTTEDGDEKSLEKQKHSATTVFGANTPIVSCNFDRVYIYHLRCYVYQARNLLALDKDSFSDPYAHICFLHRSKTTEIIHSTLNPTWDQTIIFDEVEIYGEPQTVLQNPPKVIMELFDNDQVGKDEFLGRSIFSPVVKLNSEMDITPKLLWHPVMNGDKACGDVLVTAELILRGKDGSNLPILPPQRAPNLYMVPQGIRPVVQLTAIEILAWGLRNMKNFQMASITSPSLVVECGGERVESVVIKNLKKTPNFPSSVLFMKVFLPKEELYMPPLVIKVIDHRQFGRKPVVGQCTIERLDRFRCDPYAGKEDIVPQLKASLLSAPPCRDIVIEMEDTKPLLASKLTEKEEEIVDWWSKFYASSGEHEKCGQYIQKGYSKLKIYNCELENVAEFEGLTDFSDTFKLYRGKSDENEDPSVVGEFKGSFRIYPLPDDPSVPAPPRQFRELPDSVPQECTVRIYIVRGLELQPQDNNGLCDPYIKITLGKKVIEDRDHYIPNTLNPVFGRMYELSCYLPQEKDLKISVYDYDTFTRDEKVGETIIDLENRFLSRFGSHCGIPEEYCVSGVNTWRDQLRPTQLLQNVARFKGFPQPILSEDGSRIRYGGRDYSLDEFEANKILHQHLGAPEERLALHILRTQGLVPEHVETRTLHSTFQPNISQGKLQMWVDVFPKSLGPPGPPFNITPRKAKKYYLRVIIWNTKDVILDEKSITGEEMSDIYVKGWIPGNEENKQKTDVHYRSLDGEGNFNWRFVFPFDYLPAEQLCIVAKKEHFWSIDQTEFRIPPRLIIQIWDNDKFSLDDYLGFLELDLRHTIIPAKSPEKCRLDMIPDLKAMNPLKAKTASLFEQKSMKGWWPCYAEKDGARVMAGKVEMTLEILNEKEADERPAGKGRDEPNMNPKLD

binding: no binding
Substance: soluble human myoferlin (residues 1-1997) (from UniProt Q9NZM1-1 1-1997) (domain or fragment)
